These are yes or no findings as the source states them, for the method shown. For some assays here: In cells and extracts the contact can be indirect. For some assays here: Binding calls can cover weak binding; strength is not graded here. Sequences can lack the tags named with a protein.
Experiments:
[1] = molecular target: T1, protochlorophyllide oxidoreductase B (PORB), yeast split-ubiquitin fusion (Arabidopsis thaliana) (UniProt P21218); test: two-hybrid
T1 sequence: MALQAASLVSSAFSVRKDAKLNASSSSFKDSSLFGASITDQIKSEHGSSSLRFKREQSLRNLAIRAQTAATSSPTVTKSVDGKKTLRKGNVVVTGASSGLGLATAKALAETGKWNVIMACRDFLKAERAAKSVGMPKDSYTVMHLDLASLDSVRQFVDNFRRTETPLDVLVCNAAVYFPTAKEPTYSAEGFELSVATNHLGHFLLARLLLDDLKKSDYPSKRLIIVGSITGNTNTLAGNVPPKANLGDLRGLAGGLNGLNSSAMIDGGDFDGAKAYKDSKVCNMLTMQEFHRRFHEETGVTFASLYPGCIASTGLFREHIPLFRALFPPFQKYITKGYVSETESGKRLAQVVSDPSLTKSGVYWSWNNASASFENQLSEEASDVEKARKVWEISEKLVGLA

[2] = molecular target: T2, protochlorophyllide oxidoreductase A (PORA), yeast split-ubiquitin fusion (Arabidopsis thaliana) (UniProt Q42536); test: two-hybrid
T2 sequence: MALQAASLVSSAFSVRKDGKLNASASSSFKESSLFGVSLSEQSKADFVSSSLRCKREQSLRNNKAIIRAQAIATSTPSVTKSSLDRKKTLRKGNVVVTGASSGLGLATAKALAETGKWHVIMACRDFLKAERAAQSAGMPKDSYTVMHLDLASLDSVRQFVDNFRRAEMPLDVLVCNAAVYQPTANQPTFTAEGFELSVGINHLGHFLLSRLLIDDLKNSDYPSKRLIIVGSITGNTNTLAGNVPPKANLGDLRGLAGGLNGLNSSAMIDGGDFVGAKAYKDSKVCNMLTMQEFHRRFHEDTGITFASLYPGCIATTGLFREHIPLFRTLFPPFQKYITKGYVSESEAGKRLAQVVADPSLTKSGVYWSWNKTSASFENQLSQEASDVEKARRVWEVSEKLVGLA

[3] = molecular target: T3, protochlorophyllide oxidoreductase C (PORC), yeast split-ubiquitin fusion (Arabidopsis thaliana) (UniProt O48741); test: two-hybrid
T3 sequence: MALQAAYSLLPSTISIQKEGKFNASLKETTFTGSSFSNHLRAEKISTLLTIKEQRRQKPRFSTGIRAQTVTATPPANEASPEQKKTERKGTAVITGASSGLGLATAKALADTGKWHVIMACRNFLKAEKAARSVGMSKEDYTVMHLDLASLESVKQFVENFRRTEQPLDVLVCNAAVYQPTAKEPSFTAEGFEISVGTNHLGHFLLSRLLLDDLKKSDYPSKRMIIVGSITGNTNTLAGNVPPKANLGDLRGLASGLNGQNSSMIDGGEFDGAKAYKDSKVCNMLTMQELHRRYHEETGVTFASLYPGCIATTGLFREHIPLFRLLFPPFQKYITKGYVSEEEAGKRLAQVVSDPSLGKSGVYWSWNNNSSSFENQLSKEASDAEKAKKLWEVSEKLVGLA

[4] = molecular target: T4, FLU (FLUORESCENT IN BLUE LIGHT), BiFC fusion (Arabidopsis thaliana) (UniProt Q940U6); test: split reporter
T4 sequence: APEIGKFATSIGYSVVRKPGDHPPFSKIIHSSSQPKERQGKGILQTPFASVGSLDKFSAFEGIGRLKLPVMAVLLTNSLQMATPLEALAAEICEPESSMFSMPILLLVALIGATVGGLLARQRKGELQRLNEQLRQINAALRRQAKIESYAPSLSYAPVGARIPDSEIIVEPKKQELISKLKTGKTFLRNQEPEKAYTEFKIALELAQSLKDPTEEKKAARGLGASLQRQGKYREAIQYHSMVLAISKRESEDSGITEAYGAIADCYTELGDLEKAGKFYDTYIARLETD

[5] = molecular target: glutamyl-tRNA reductase (GluTR), BiFC fusion (Arabidopsis thaliana); test: split reporter
[6] = molecular target: Mg protoporphyrin monomethylester (MgPME) cyclase subunit CHL27, BiFC fusion (Arabidopsis thaliana); test: split reporter
[7] = molecular target: MgPME cyclase subunit CHL27, yeast split-ubiquitin fusion (Arabidopsis thaliana); test: two-hybrid

With “FC2ΔCAB, yeast split-ubiquitin fusion (Arabidopsis thaliana) (domain or fragment)” as the molecule, how does the binding [1] read?
The binding was “no binding”.

And the binding [2]?
Its binding is “no binding”.

What about the binding [3] of the same molecule?
The binding was “no binding”.

Which binding [4] does the source give for “glutamyl-tRNA reductase (GluTR), BiFC fusion (Arabidopsis thaliana) (enzyme)” here?
Its binding is “binds”.

B1: ferrochelatase 2 (FC2), BiFC fusion (enzyme, UniProt O04921 84-512)
chain: VISDAISSSSVITDDAKIGVLLLNLGGPETLDDVQPFLFNLFADPDIIRLPPVFQFLQKPLAQFISVARAPKSKEGYASIGGGSPLRHITDAQAEELRKCLWEKNVPAKVYVGMRYWHPFTEEAIEQIKRDGITKLVVLPLYPQFSISTSGSSLRLLERIFREDEYLVNMQHTVIPSWYQREGYIKAMANLIQSELGKFGSPNQVVIFFSAHGVPLAYVEEAGDPYKAEMEECVDLIMEELDKRKITNAYTLAYQSRVGPVEWLKPYTEEAITELGKKGVENLLAVPISFVSEHIETLEEIDVEYKELALKSGIKNWGRVPALGTEPMFISDLADAVVESLPYVGAMAVSNLEARQSLVPLGSVEELLATYDSQRRELPAPVTMWEWGWTKSAETWNGRAAMLAVLALLVLEVTTGKGFLHQWGILPSL
How did the binding [5] turn out when B1 was run?
The binding was “binds”.

And the binding [6]?
The binding was “no binding”.

B2: protochlorophyllide oxidoreductase B (PORB), BiFC fusion (enzyme, UniProt P21218 67-401)
chain: QTAATSSPTVTKSVDGKKTLRKGNVVVTGASSGLGLATAKALAETGKWNVIMACRDFLKAERAAKSVGMPKDSYTVMHLDLASLDSVRQFVDNFRRTETPLDVLVCNAAVYFPTAKEPTYSAEGFELSVATNHLGHFLLARLLLDDLKKSDYPSKRLIIVGSITGNTNTLAGNVPPKANLGDLRGLAGGLNGLNSSAMIDGGDFDGAKAYKDSKVCNMLTMQEFHRRFHEETGVTFASLYPGCIASTGLFREHIPLFRALFPPFQKYITKGYVSETESGKRLAQVVSDPSLTKSGVYWSWNNASASFENQLSEEASDVEKARKVWEISEKLVGLA
B2 was tested. Which binding [5] did it give?
The binding was “binds”.

B3: ferrochelatase 2 (FC2), yeast split-ubiquitin fusion (enzyme, UniProt O04921 1-512)
chain: MNCPAMTASPSSSSSSSYSTFRPPPPLLPQLSNDSQRSVVMHCTRLPFEAFAATSSNRLLGKHSLPLRAALVTSNPLNISSSSVISDAISSSSVITDDAKIGVLLLNLGGPETLDDVQPFLFNLFADPDIIRLPPVFQFLQKPLAQFISVARAPKSKEGYASIGGGSPLRHITDAQAEELRKCLWEKNVPAKVYVGMRYWHPFTEEAIEQIKRDGITKLVVLPLYPQFSISTSGSSLRLLERIFREDEYLVNMQHTVIPSWYQREGYIKAMANLIQSELGKFGSPNQVVIFFSAHGVPLAYVEEAGDPYKAEMEECVDLIMEELDKRKITNAYTLAYQSRVGPVEWLKPYTEEAITELGKKGVENLLAVPISFVSEHIETLEEIDVEYKELALKSGIKNWGRVPALGTEPMFISDLADAVVESLPYVGAMAVSNLEARQSLVPLGSVEELLATYDSQRRELPAPVTMWEWGWTKSAETWNGRAAMLAVLALLVLEVTTGKGFLHQWGILPSL
B3 was tested. Which binding [7] did it give?
Its binding is “no binding”.

— publication doi:10.1101/2022.10.12.511875
